One molecule from patent US20030031667A1 (CELLDEX RESEARCH, published 2003) can be followed below.

Results are given in words; binding and its absence hold for the method and conditions named. A result given as binding can be weak or reduced; the word gives no strength.

This experiment concerns the target B11 target antigen on dendritic cells derived from cynomolgus macaques (cynomolgus macaque). In words: flow cytometry, 10 µg/ml B11-FITC on cynomolgus dendritic cells.

B1: human monoclonal antibody B11 (antibody, human IgG1, V domains shown)
VH: EVQLVQSGAEVKKPGESLRISCKGSGDSFTTYWIGWVRQMPGKGLEWMGIIYPGDSDTIYSPSFQGQVTISADKSISTAYLQWSSLKASDTAMYYCTRGDRGVDYWGQGTLVTVSS
VL: DIQMTQSPSSLSASVGDRVTITCRASQGISRWLAWYQQKPEKAPKSLIYAASSLQSGVPSRFSGSGSGTDFTLTISGLQPEDFATYYCQQYNSYPRTFGQGTKVEIK
notes: Human IgG1 kappa from a HuMAb mouse hybridoma; also called B11 HuMab; mAb B11
In the case of B1, the binding result is recorded as “binds”.
